According to the supplement of paper PMC10849652:
This is one part of the list.

Chains of the proteins cited; added tags and fusions are not shown. Lines headed by an entry give the natural chain unless they say otherwise; changes in a name come on top.
UniProt P05161, whole entry, looked up: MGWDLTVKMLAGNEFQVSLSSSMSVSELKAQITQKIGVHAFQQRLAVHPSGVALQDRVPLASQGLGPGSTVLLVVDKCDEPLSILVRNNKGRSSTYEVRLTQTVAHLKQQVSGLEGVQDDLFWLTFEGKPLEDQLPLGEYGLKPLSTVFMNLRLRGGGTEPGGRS
UniProt Q96SI1: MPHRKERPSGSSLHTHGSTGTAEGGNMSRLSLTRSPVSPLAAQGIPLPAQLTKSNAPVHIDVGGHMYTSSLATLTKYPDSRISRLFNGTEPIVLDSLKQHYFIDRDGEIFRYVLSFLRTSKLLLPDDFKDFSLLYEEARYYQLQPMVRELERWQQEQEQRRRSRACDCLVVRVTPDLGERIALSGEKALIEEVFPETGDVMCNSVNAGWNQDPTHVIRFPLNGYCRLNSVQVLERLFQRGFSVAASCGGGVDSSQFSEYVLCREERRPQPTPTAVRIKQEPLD
UniProt Q9P0J7: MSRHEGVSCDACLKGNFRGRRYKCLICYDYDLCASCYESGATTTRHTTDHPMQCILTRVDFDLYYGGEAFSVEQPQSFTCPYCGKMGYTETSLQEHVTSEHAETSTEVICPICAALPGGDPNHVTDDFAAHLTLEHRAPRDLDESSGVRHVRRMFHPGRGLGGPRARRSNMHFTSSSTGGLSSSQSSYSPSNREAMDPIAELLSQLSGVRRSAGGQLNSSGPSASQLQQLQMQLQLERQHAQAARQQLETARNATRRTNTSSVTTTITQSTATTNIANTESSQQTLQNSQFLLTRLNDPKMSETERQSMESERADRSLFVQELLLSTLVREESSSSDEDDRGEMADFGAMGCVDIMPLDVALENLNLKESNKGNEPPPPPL
UniProt O95251, whole entry, looked up: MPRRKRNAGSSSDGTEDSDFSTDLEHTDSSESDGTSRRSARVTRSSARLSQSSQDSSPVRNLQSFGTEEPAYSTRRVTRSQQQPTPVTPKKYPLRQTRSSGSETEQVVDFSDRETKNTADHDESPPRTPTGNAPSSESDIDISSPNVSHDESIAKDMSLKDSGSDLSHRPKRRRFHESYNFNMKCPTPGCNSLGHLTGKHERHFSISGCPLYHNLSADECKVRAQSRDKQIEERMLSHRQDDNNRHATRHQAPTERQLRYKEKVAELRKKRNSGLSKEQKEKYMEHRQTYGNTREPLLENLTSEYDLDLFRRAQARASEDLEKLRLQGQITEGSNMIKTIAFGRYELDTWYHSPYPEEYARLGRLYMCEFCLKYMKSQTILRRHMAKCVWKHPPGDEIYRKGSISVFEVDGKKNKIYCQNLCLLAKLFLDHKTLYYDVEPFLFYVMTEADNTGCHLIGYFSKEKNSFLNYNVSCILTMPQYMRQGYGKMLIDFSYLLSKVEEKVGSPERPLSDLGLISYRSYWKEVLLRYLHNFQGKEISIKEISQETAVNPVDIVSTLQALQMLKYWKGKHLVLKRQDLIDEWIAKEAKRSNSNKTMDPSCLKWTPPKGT
UniProt P51617, whole entry, looked up: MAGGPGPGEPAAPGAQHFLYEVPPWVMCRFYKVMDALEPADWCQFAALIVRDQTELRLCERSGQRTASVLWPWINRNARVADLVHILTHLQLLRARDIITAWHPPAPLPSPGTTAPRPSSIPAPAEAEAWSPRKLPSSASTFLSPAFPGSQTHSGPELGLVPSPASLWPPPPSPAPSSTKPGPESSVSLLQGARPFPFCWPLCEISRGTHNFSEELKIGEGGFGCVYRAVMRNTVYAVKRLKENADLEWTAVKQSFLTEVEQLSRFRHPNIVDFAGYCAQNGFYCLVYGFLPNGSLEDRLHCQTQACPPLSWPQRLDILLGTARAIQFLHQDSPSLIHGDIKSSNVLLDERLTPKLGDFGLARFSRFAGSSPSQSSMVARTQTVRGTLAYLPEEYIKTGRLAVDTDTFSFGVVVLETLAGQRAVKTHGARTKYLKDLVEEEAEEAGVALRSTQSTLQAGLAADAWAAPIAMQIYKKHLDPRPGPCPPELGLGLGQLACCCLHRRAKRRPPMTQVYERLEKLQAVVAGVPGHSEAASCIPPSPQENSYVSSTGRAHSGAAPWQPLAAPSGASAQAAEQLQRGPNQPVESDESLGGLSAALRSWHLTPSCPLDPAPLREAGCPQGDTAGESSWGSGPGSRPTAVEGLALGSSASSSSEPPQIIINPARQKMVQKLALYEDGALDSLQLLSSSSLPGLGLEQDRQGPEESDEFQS
UniProt Q8NB78: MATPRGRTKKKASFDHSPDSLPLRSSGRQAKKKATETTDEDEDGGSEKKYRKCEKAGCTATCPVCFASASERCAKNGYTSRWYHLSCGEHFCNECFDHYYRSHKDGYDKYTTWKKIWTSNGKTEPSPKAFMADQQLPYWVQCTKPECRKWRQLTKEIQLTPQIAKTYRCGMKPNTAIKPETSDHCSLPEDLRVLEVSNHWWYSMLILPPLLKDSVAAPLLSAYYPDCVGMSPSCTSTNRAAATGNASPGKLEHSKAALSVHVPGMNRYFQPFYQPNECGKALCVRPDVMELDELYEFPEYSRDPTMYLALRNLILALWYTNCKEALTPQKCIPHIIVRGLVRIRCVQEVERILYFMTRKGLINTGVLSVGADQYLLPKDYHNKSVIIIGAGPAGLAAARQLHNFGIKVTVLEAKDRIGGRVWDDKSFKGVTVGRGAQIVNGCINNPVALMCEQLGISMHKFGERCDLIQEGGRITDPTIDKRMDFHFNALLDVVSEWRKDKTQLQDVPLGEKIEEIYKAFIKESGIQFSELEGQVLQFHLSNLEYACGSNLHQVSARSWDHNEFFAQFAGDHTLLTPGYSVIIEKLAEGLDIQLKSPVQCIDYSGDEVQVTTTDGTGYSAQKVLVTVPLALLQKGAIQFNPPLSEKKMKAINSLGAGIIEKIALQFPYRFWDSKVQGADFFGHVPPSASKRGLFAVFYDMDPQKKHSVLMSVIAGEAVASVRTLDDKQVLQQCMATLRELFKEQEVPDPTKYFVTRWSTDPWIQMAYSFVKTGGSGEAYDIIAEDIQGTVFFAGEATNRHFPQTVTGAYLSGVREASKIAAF
UniProt Q9NPH2: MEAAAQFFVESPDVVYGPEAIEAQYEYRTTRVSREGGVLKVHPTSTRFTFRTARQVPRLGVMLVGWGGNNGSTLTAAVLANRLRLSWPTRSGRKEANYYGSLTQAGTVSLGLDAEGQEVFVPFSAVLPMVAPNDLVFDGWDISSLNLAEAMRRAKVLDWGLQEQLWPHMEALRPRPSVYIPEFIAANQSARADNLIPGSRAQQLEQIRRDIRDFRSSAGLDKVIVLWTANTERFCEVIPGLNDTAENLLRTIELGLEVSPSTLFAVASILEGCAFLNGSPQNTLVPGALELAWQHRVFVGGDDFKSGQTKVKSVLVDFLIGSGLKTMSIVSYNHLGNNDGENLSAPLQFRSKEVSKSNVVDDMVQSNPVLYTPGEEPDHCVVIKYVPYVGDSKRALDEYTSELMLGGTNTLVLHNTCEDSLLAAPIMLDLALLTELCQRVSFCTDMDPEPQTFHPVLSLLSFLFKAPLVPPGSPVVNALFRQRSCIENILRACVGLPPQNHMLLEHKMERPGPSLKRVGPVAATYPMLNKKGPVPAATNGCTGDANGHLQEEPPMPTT
UniProt P46940, whole entry, looked up: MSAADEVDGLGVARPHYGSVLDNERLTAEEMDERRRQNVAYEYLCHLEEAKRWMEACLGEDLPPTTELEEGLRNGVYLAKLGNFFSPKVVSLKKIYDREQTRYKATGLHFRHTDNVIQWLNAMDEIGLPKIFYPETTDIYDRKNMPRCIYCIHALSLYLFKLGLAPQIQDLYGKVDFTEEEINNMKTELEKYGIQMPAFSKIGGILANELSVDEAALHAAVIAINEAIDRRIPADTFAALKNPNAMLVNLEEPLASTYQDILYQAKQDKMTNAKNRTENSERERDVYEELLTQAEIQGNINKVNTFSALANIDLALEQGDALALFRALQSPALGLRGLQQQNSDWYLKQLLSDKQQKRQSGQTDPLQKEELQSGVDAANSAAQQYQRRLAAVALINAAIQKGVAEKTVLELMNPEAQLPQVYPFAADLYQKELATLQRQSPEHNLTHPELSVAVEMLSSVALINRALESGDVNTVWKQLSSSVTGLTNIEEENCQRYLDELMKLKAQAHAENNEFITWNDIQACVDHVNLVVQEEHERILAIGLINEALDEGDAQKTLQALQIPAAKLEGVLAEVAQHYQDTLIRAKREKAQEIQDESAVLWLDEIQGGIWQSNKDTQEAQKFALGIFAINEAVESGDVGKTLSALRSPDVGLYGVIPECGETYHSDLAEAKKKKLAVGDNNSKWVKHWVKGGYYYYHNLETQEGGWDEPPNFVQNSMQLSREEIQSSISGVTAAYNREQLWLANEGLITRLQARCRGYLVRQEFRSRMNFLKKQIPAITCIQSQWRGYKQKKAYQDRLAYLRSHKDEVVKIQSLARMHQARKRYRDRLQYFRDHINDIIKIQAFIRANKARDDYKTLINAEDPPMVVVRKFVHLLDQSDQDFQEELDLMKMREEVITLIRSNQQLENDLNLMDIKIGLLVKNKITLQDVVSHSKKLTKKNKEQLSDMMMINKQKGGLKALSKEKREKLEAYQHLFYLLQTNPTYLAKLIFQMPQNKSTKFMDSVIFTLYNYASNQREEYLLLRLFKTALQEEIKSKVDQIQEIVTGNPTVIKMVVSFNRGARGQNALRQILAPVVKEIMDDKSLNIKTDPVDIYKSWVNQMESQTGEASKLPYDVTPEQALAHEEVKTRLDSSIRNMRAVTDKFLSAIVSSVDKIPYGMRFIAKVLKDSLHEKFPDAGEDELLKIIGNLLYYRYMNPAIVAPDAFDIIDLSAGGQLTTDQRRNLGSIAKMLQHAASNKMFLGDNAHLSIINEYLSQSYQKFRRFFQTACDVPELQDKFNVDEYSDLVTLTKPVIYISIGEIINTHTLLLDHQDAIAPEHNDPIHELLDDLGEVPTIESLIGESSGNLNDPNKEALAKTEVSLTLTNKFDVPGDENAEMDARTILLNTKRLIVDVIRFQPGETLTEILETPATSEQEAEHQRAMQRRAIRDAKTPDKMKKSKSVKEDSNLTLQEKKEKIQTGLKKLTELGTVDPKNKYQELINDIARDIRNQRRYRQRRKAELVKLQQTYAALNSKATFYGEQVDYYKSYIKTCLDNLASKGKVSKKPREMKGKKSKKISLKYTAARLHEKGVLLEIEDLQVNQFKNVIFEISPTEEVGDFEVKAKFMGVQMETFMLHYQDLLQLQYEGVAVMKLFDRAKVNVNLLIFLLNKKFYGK
UniProt P14316: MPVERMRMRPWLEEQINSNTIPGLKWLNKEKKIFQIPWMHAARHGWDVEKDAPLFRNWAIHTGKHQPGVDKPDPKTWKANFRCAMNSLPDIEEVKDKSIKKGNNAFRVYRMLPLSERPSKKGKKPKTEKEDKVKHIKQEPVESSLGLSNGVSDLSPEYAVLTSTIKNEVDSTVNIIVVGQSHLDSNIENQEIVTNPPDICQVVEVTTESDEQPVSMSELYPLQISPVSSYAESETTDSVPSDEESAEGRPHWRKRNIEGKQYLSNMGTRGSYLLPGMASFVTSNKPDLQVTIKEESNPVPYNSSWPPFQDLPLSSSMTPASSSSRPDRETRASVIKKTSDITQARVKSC

Legend:
Assay in all cases: log2 fold change, soluble protein after heating vs DMSO (PISA); higher = thermal stabilisation; K562 lysate, 10 uM; active = over 0.2 and 3.5 SD of the protein, either way, in both replicates (recomputed)
[1] = compound: C#Cc1cccc(Nc2ncnc3cc(OCCOC)c(OCCOC)cc23)c1 [erlotinib]
How it was run: (§1)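 Quantification was by TMTpro 16plex LC-MS/MS with equalised channel sums, applied to the supernatant after 21,000xg for 90 min. Samples were crude K562 extract at 1 mg/mL protein in PBS pH 7.4 with 1 mM MgCl2, treated with 10 μM compound for 30 min, heated for 3 min across 48°C-58°C, pooled and brought to 0.5% NP-40 at 4°C. Values are log-two fold changes in thermal stability relative to solvent controls, from duplicates.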

[2] = compound: C/C(=N\NC(=O)C1=CC(=CC=C1)S(=O)(=O)N2CCOCC2)/C3=C(C=CC(=C3)Cl)O
How it was run: as §1

[3] = compound: C1=CC(=CC=C1C2=NC3=C(N2)C=C(C=C3)C(=O)N)OC4=CC=C(C=C4)Cl
How it was run: as §1

[4] = compound: C1=CC2=C(C=CC(=C2)/C=C\3/C(=O)NC(=NCC4=CC=CS4)S3)N=C1
How it was run: as §1

[5] = compound: C1=CC2=NC=CN=C2C=C1/C=C/3\C(=O)NC(=O)S3
How it was run: as §1

[6] = compound: C1=CC=C(C=C1)C2=NC(=C(N2)C3=CC=NC=C3)C4=CC(=C(C=C4)Cl)O
How it was run: as §1

[7] = compound: C1=CC=C2C(=C1)C3=NNC4=CC=CC(=C43)C2=O
How it was run: as §1

[8] = compound: C1CCN(C1)C(=O)NC2=CC=CC(=C2)NC3=NC=C(C(=N3)NCCC4=CN=CN4)Br
How it was run: as §1

[9] = compound: C1CN(CCC1(CC2=CC=C(C=C2)Cl)N)C3=NC=NC4=C3C=CN4
How it was run: as §1

[10] = compound: C1COCCN1CCN2C3=CC=CC=C3N=C2NC(=O)C4=CC(=CC=C4)[N+](=O)[O-] [IRAK-1-4 Inhibitor I]
How it was run: as §1

Measured: log2 fold change

IQGAP2 (UniProt Q13576)
inactive: [1] -0.004 | [2] 0.009 | [3] -0.036 | [4] 0.028 | [5] 0.012 | [6] 0.015 | [7] -0.056 | [8] -0.008 | [9] 0.005 | [10] 0.01

ISG15 (UniProt P05161)
inactive: [1] -0.011 | [2] -0.204 | [3] 0.107 | [4] 0.012 | [5] -0.025 | [6] -0.031 | [7] -0.019 | [8] -0.019 | [9] 0.024 | [10] -0.029

JAGN1 (UniProt Q8N5M9)
inactive: [1] 0.037 | [2] 0.02 | [3] -0.049 | [4] 0.078 | [5] -0.02 | [6] -0.022 | [7] 0.029 | [8] 0.002 | [9] -0.001 | [10] 0.051

KCTD15 (UniProt Q96SI1)
inactive: [1] -0.01 | [2] -0.128 | [3] 0.01 | [4] 0.031 | [5] 0.002 | [6] -0.019 | [7] 0.047 | [8] 0.074 | [9] -0.001 | [10] 0.014

KCMF1 (UniProt Q9P0J7)
inactive: [1] -0.019 | [2] 0.041 | [3] -0.013 | [4] 0.022 | [5] 0.021 | [6] 0.067 | [7] 0.016 | [8] 0 | [9] 0.011 | [10] -0.026

KAT7 (UniProt O95251)
inactive: [1] 0 | [2] 0.034 | [3] -0.011 | [4] -0.03 | [5] 0.032 | [6] -0.035 | [7] -0.004 | [8] -0.013 | [9] 0.094 | [10] -0.027

IPO13 (UniProt O94829)
inactive: [1] 0.016 | [2] 0.117 | [3] -0.023 | [4] -0.011 | [5] 0.034 | [6] -0.014 | [7] -0.005 | [8] -0.02 | [9] 0.034 | [10] 0.056

JMJD1C (UniProt Q15652)
inactive: [1] 0.003 | [2] -0.021 | [3] 0.022 | [4] -0.07 | [5] -0.028 | [6] 0.013 | [7] -0.007 | [8] -0.072 | [9] 0.043 | [10] 0

KDM1A (UniProt O60341)
inactive: [1] -0.005 | [2] 0.106 | [3] 0.021 | [4] 0 | [5] -0.006 | [6] -0.019 | [7] -0.071 | [8] -0.019 | [9] -0.009 | [10] -0.003

IRAK1 (UniProt P51617)
inactive: [1] 0.038 | [2] -0.054 | [3] -0.108 | [4] -0.015 | [5] 0.028 | [6] 0.039 | [7] 0.117 | [8] 0.023 | [9] -0.096 | [10] 0.023

ISY1 isoform 1 (UniProt Q9ULR0)
inactive: [1] 0.022 | [2] 0.07 | [3] 0.02 | [4] 0.06 | [5] 0.018 | [6] 0.004 | [7] -0.004 | [8] 0.031 | [9] 0.068 | [10] 0.014

ITPKC (UniProt Q96DU7)
inactive: [1] 0.074 | [2] 0.081 | [3] -0.052 | [4] 0.053 | [5] 0.024 | [6] 0.073 | [7] -0.004 | [8] 0.014 | [9] 0.024 | [10] -0.013

KDM1B (UniProt Q8NB78)
inactive: [1] 0.066 | [2] 0.086 | [3] 0.073 | [4] -0.033 | [5] -0.064 | [6] -0.01 | [7] -0.125 | [8] -0.03 | [9] 0.113 | [10] 0.005

ITGAV (UniProt P06756)
inactive: [1] -0.025 | [2] -0.034 | [3] 0.032 | [4] 0.006 | [5] -0.038 | [6] -0.024 | [7] -0.06 | [8] -0.021 | [9] 0.018 | [10] 0.031

ISYNA1 (UniProt Q9NPH2)
inactive: [1] -0.034 | [2] 0.014 | [3] -0.018 | [4] 0.01 | [5] 0.029 | [6] -0.037 | [7] 0.025 | [8] 0.042 | [9] 0.011 | [10] 0.013

KARS1 (UniProt Q15046)
inactive: [1] -0.015 | [2] 0.002 | [3] -0.04 | [4] -0.016 | [5] -0.005 | [6] 0.004 | [7] -0.021 | [8] -0.006 | [9] -0.021 | [10] -0.017

IQSEC1 (UniProt Q6DN90)
inactive: [1] 0.024 | [2] 0.009 | [3] 0.03 | [4] 0.099 | [5] -0.064 | [6] -0.052 | [7] -0.101 | [8] -0.013 | [9] -0.082 | [10] 0.005

IPO8 (UniProt O15397)
inactive: [1] 0.023 | [2] -0.051 | [3] 0.024 | [4] 0.002 | [5] 0.048 | [6] -0.01 | [7] -0.05 | [8] 0 | [9] 0.004 | [10] -0.006

INTS3 (UniProt Q68E01)
inactive: [1] 0.015 | [2] 0.035 | [3] 0.021 | [4] -0.002 | [5] -0.008 | [6] -0.043 | [7] -0.005 | [8] 0.026 | [9] -0.083 | [10] 0.016

INTS2 (UniProt Q9H0H0)
inactive: [1] 0.124 | [2] 0.161 | [3] 0 | [4] 0.109 | [5] -0.049 | [6] -0.01 | [7] 0.048 | [8] -0.036 | [9] 0.066 | [10] 0.053

INTS4 (UniProt Q96HW7)
inactive: [1] -0.026 | [2] -0.061 | [3] 0.008 | [4] 0.015 | [5] -0.01 | [6] -0.013 | [7] -0.014 | [8] -0.078 | [9] 0.007 | [10] 0.111

IQGAP1 (UniProt P46940)
inactive: [1] -0.029 | [2] 0.092 | [3] 0.024 | [4] -0.021 | [5] -0.012 | [6] 0 | [7] -0.024 | [8] -0.01 | [9] 0.033 | [10] -0.02

IRAK4 (UniProt Q9NWZ3)
active: [8] 0.3
inactive: [1] -0.03 | [2] -0.071 | [3] -0.037 | [4] -0.019 | [5] 0.037 | [6] 0.015 | [7] 0.223 | [9] -0.037 | [10] 0.006

JPT2 isoform 3 (UniProt Q9H910)
inactive: [1] -0.002 | [2] -0.006 | [3] 0.096 | [4] -0.02 | [5] -0.012 | [6] 0.008 | [7] -0.024 | [8] -0.004 | [9] -0.008 | [10] 0.021

IRF2 (UniProt P14316)
inactive: [1] -0.06 | [2] -0.218 | [3] 0.048 | [4] -0.035 | [5] -0.047 | [6] 0.017 | [7] 0.046 | [8] -0.002 | [9] 0.012 | [10] -0.021

KBTBD2 (UniProt Q8IY47)
inactive: [1] -0.002 | [2] 0.019 | [3] 0.056 | [4] 0 | [5] 0.011 | [6] 0.016 | [7] -0.079 | [8] -0.023 | [9] 0.052 | [10] 0.097

KAT8 (UniProt Q9H7Z6)
inactive: [1] -0.001 | [2] -0.098 | [3] 0.031 | [4] 0.011 | [5] -0.014 | [6] 0.057 | [7] 0.019 | [8] -0.029 | [9] -0.01 | [10] 0.01

IPO9 (UniProt Q96P70)
inactive: [1] -0.008 | [2] -0.006 | [3] 0.017 | [4] 0.005 | [5] 0.014 | [6] -0.005 | [7] 0.006 | [8] 0.007 | [9] 0.011 | [10] 0.017

ITGA5 (UniProt P08648)
inactive: [1] 0.007 | [2] -0.07 | [3] 0.001 | [4] 0 | [5] -0.02 | [6] -0.005 | [7] -0.015 | [8] 0 | [9] 0.008 | [10] 0.018

KCT2 (UniProt Q8NC54)
inactive: [1] -0.05 | [2] 0.098 | [3] 0.041 | [4] 0.017 | [5] 0.055 | [6] 0 | [7] -0.026 | [8] 0.021 | [9] 0.01 | [10] 0.031

Pulled one by one from the list above, two records:
KDM1A (UniProt O60341)
inactive: [1] -0.005 | [2] 0.106 | [3] 0.021 | [4] 0 | [5] -0.006 | [6] -0.019 | [7] -0.071 | [8] -0.019 | [9] -0.009 | [10] -0.003

IRAK1 (UniProt P51617)
inactive: [1] 0.038 | [2] -0.054 | [3] -0.108 | [4] -0.015 | [5] 0.028 | [6] 0.039 | [7] 0.117 | [8] 0.023 | [9] -0.096 | [10] 0.023
